Patent publication US6972297B2, “2-Hydroxy-mutilin carbamate derivatives for antibacterial use” (SmithKline Beecham p.l.c., priority 2000, dated 2005)
Some results were stated once for a whole list of compounds, not compound by compound. For at least one compound, name, drawing or mass did not settle the structure.

Key:
Assay type in all cases: cell-based
[1] = system: Staphylococcus aureus Oxford; experiment: conventional MIC assay, Staphylococcus aureus Oxford
Description: (§1) Compounds of the present invention were assessed for anti-bacterial activity in a conventional MIC assay against a range of pathogenic organisms.

[2] = system: Moraxella catarrhalis Ravasio; experiment: conventional MIC assay, Moraxella catarrhalis Ravasio
Description: as §1

[3] = system: Streptococcus pneumoniae 1629; experiment: conventional MIC assay, Streptococcus pneumoniae 1629
Description: as §1

[4] = system: Haemophilius influenzae Q1; experiment: conventional MIC assay, Haemophilius influenzae Q1
Description: as §1

Measured: MIC

C=C[C@]1(C)C[C@@H](OC(=O)NC(=O)c2cncc(N)c2)[C@]2(C)C(C)CC[C@]3(C[C@H](O)C(=O)C32)[C@@H](C)[C@@H]1O (stereo partly drawn) [Example 3, (5-Aminonicotinoyl)carbamic Acid 2-(S)hydroxymutilin 14-ester]
≤ 4 µg/mL: [1] | [2] | [3]

C=C[C@]1(C)C[C@@H](OC(=O)NC(=O)c2ccc(N)cn2)[C@]2(C)C(C)CC[C@]3(C[C@H](O)C(=O)C32)[C@@H](C)[C@@H]1O (stereo partly shown) [Example 5]
≤ 4 µg/mL: all assays above

C=C[C@]1(C)C[C@@H](OC(=O)NC(=O)c2cc(N)ccn2)[C@]2(C)C(C)CC[C@]3(C[C@H](O)C(=O)C32)[C@@H](C)[C@@H]1O (stereo partly shown) [Example 6]
≤ 4 µg/mL: all assays above

C=C[C@]1(C)C[C@@H](OC(=O)NC(=O)c2ccc(OC)nc2)[C@]2(C)C(C)CC[C@]3(C[C@H](O)C(=O)C32)[C@@H](C)[C@@H]1O (stereo partly shown) [Example 7]
≤ 4 µg/mL: all assays above

C=C[C@]1(C)C[C@@H](OC(=O)NC(=O)c2cnc(N)s2)[C@]2(C)C(C)CC[C@]3(C[C@H](O)C(=O)C32)[C@@H](C)[C@@H]1O (stereo partly shown) [Example 8]
≤ 4 µg/mL: [1] | [2] | [3]

C=C[C@]1(C)C[C@@H](OC(=O)NC(=O)c2csc(N)n2)[C@]2(C)C(C)CC[C@]3(C[C@H](O)C(=O)C32)[C@@H](C)[C@@H]1O (stereo partly shown) [Example 9]
≤ 4 µg/mL: [1] | [2] | [3]

C=C[C@]1(C)C[C@@H](OC(=O)NC(=O)c2cncnc2)[C@]2(C)C(C)CC[C@]3(C[C@H](O)C(=O)C32)[C@@H](C)[C@@H]1O (stereo partly shown) [Example 16]
≤ 4 µg/mL: all assays above

C=C[C@]1(C)C[C@@H](OC(=O)NC(=O)c2cnc(N(C)C)nc2)[C@]2(C)C(C)CC[C@]3(C[C@H](O)C(=O)C32)[C@@H](C)[C@@H]1O (stereo partly shown) [Example 17]
≤ 4 µg/mL: all assays above

C=C[C@]1(C)C[C@@H](OC(=O)NC(=O)c2cnc(NC)nc2)[C@]2(C)C(C)CC[C@]3(C[C@H](O)C(=O)C32)[C@@H](C)[C@@H]1O (stereo partly drawn) [Example 18, (2-N-methylaminopyrimidin-5-ylcarbonyl)carbamic Acid 2-(S)-hydroxymutilin 14-ester]
≤ 4 µg/mL: [1] | [2] | [3]

C=C[C@]1(C)C[C@@H](OC(=O)NC(=O)c2cnn3cccnc23)[C@]2(C)C(C)CC[C@]3(C[C@H](O)C(=O)C32)[C@@H](C)[C@@H]1O (stereo partly shown) [Example 19]
≤ 4 µg/mL: all assays above

C=C[C@]1(C)C[C@@H](OC(=O)NC(=O)c2cnc(OC)c(N)c2)[C@]2(C)C(C)CC[C@]3(C[C@H](O)C(=O)C32)[C@@H](C)[C@@H]1O (stereo partly shown) [Example 20]
≤ 4 µg/mL: all assays above

C=C[C@]1(C)C[C@@H](OC(=O)NC(=O)c2cnc(N)c(OC)c2)[C@]2(C)C(C)CC[C@]3(C[C@H](O)C(=O)C32)[C@@H](C)[C@@H]1O (stereo partly shown) [Example 21]
≤ 4 µg/mL: all assays above

C=C[C@]1(C)C[C@@H](OC(=O)NC(=O)c2ccnc(N)n2)[C@]2(C)C(C)CC[C@]3(C[C@H](O)C(=O)C32)[C@@H](C)[C@@H]1O (stereo partly shown) [Example 24]
≤ 4 µg/mL: all assays above

C=C[C@]1(C)C[C@@H](OC(=O)NC(=O)c2ccc(N(C)C)nc2)[C@]2(C)C(C)CC[C@]3(C[C@H](O)C(=O)C32)[C@@H](C)[C@@H]1O (stereo partly shown) [Example 25]
≤ 4 µg/mL: all assays above

C=C[C@]1(C)C[C@@H](OC(=O)NC(=O)c2ccc(NC)nn2)[C@]2(C)C(C)CC[C@]3(C[C@H](O)C(=O)C32)[C@@H](C)[C@@H]1O (stereo partly drawn) [Example 28, (3-N-methylpyridazin-6-ylcarbonyl)carbamic Acid 2-(S)-hydroxymutilin 14-ester]
≤ 4 µg/mL: [1] | [2] | [3]

C=C[C@]1(C)C[C@@H](OC(=O)NC(=O)c2cnc(N)c(C#N)c2)[C@]2(C)C(C)CC[C@]3(C[C@H](O)C(=O)C32)[C@@H](C)[C@@H]1O (stereo partly drawn) [Example 29, (6-Amino-5-cyanonicotinoyl)carbamic Acid 2-(S)-hydroxymutilin 14-ester]
≤ 4 µg/mL: [1] | [2] | [3]

C=C[C@]1(C)C[C@@H](OC(=O)NC(=O)c2csc(C3CCN(CC#N)CC3)n2)[C@]2(C)C(C)CC[C@]3(C[C@H](O)C(=O)C32)[C@@H](C)[C@@H]1O (stereo partly drawn) [Example 31, [2-(1-Cyanomethylpiperidin-4-yl)thiazole-4-carbonyl]carbamic Acid 2-(S)-hydroxymutilin 14-ester]
≤ 4 µg/mL: [1] | [2] | [3]

CC[C@]1(C)C[C@@H](OC(=O)NC(=O)c2cnc(N)c(C#N)c2)[C@]2(C)C(C)CC[C@]3(C[C@H](O)C(=O)C32)[C@@H](C)[C@@H]1O (stereo partly shown) [Example 33]
≤ 4 µg/mL: [1] | [2] | [3]
